# Results taken from US8785473B2, “Plasminogen activator inhibitor-1 inhibitor” (Renascience Co., Ltd., priority 2009, dated 2014).
# At least one compound was matched to its structure with a doubt left.
# System: rat model of ferric chloride-induced thrombosis
# Test: Test Example 3: antithrombotic effect confirmation test in a rat model of ferric chloride-induced thrombosis
# Format: in vivo
# Conditions: SD rats, 0.3 mg/kg or 1 mg/kg orally 2 hours before operation, compared to the vehicle group (FIG. 1)
# Excerpt: The antithrombotic effect of each of compounds (4), (13), (68), and (79) prepared in Examples 4, 13, 68, and 79 (hereinafter referred to as a test compound) was confirmed using a rat model of ferric chloride-induced thrombosis.
# Male 9-week-old SD rats (Japan SLC) were used, and divided into a vehicle group and a test compound group (each having n=10). Two hours before the operation for performing a test, in the test compound group, a 0.5% aqueous sodium carboxymethylcellulose (CMC) solution obtained by suspending a test compound in a mortar was added so that the test compound was orally administered in an amount of 0.3 mg/kg or 1 mg/kg. In the vehicle group, a 0.5% CMC aqueous solution that contained no test compound was orally administered. Two hours after oral administration, the rats in each group were anesthetized using […]., and the following operations were performed on a heat pad that had been kept at 38° C.
# An incision was made on the cervical skin, and the left carotid artery was exposed in such a manner that the cervical skeletal muscle was not injured. The adhesion tissue was carefully peeled off. […] The carotid artery blood flow was measured using a cuff-type Doppler blood flow meter (inside diameter: 1 mm) placed at the periphery side, and recorded on a recorder (Graphtec WR3320) via an amplifier (Nihon Kohden, RMP-6004M). […]
smiles,measurement,value
"O=C(Nc1ccc(Cl)cc1C(=O)O)c1cccc(-c2cccc3cccnc23)c1 [Example 68, sodium 5-chloro-2-({[3-(quinolin-8-yl)phenyl]carbonyl}amino)benzoate]",initial occlusion time (antithrombotic effect),significantly prolonged
